Reference: PubChem BioAssay AID2685 (National Center for Advancing Translational Sciences (NCATS), 2010)
Some of the results follow. Further columns of the screen follow, without active or inactive calls. The list favours compounds with an active or inconclusive main result. Words in brackets tell the shape of the fitted curve; partial curves, single points and poor fits give uncertain potencies.

Assay: qHTS Assay for Lipid Storage Modulators in Drosophila S3 Cells;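 for cell number change: cells counted by Cell Tracker Red CMTPX staining in the red channel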
Details: BODIPY lipid droplet fluorescence, 18-24 h; for cell number change: measured here: cell count max response, cells fed with added oleic acid
Outline: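 Drosophila S3 cells loaded with oleic acid (400 uM, as added) and compounds at several concentrations; lipid droplets imaged by 488-nm laser-scanning cytometry, 500–530 nm intensity and object ratio to cell channel. Percent activity normalized to 20 uM Triacsin C.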

[1] = measured here: lipid fluorescence (Fed channel) AC50, cells fed with added oleic acid
[2] = measured here: cell number channel AC50, cells fed with added oleic acid

SMILES	cell number change [%]	AC50 [1]	AC50 [2]
CCN1CCCC1CN(Cc1cc2ccc(C)cc2[nH]c1=O)C(=S)Nc1ccc(OC)cc1OC (stereo not drawn)	0.302	8.2 µM [rising, partial curve]	
N#Cc1ccc(Cl)cc1NC(=O)CSc1nc2nc(-c3cccs3)cc(C(F)(F)F)c2c(=O)[nH]1	3.47	0.13 µM [rising, full curve, poor fit]	
Cc1cnc(C(=O)Nc2nnc(C)s2)cn1	-24	0.13 µM [falling, full curve, poor fit]	0.58 µM [falling, single point]
O=S(=O)(NCCCSc1ccccc1)c1ccccc1F	1.39	29.1 µM [rising, partial curve, poor fit]	
CCNC(=S)NNC(=O)CCc1nc2cc(Cl)ccc2n(Cc2ccccc2)c1=O	-5.13	5.17 µM [rising, single point]	
C=CCn1c(O)c(CN2CCN(Cc3ccccc3)CC2)c(C)c(C#N)c1=O	23.9	0.00461 µM [falling, full curve, poor fit]	
O=C(O)CSc1nc2ccccc2[nH]1	-43.9	5.8 µM [falling, full curve]	0.146 µM [falling, full curve]
Cc1cc2[nH]c3c(c[n+](C)c4ccccc34)c2cc1C	-63.7	1.3 µM [falling, partial curve]	29.1 µM [falling, partial curve, poor fit]
CN1CCN(CCOC2Cc3ccccc3Sc3ccc(Cl)cc32)CC1 (stereo not drawn)	5.76	29.1 µM [falling, single point]	
O=C(NCc1ccco1)c1ccccc1NS(=O)(=O)c1ccc2c(c1)OCCO2	-0.398	6.51 µM [falling, single point]	0.58 µM [falling, single point]
COc1ccc(CCNC(=O)CN(c2cccc([N+](=O)[O-])c2)S(C)(=O)=O)cc1		29.1 µM [falling, single point]	
CCN(CC)S(=O)(=O)c1cc(NC(=O)C2CC(=O)N(Cc3ccccc3)C2)ccc1Cl (stereo not drawn)	-4.1	29.1 µM [falling, single point]	
COc1cccc2sc(N)nc12	14.7	20.6 µM [falling, single point]	
Cc1nc2c3c4c(sc3n3c(SCC(=O)NCc5ccco5)nnc3n2n1)COC(C)(C)C4			1.3 µM [rising, partial curve, poor fit]
CCCCOc1ccc(Cc2cnc(N)nc2N)cc1	-22.6	0.731 µM [falling, partial curve, poor fit]	
CN(C)CCCN1c2ccccc2Sc2ccc(C(F)(F)F)cc21	-43	0.00461 µM [rising, full curve, poor fit]	20.6 µM [falling, single point]
OC1CCC(Nc2ncnc3sccc23)CC1 (stereo not drawn)	-27.6		
Nc1nc(-c2ccccc2)cs1	-67.8	14.6 µM [falling, partial curve]	7.31 µM [falling, partial curve]
O=[N+]([O-])c1cc([N+](=O)[O-])c(Oc2c(F)cccc2F)cc1NN1CCCCC1	17.7	18.4 µM [rising, single point]	

SMILES	cell number change [%]	AC50 [1]	AC50 [2]
CCN(C(=O)C1CCCN1S(=O)(=O)c1cccc2nsnc12)c1ccccc1 (stereo not drawn)	-13	16.4 µM [rising, partial curve, poor fit]	
COc1ccc(-c2cc(-c3cccs3)nc(OC)c2C#N)cc1OC	-35.6	14.6 µM [falling, single point]	14.6 µM [falling, single point]
CNCCCNCc1ccc(SC)cc1	-20.1	3.66 µM [falling, partial curve, poor fit]	
COc1cccc(C(=O)Nc2cccc(C(=O)N3CCOCC3)c2)c1	-64.1	20.6 µM [falling, partial curve]	20.6 µM [falling, partial curve]
Cc1c(NC(=O)c2ccc(Br)s2)c(=O)n(-c2ccccc2)n1C	-3.95	29.1 µM [falling, single point]	
Cc1ccc(OCC(=O)NNC(=O)Cn2c(=O)cnc3ccccc32)cc1	15.2	0.0164 µM [rising, full curve, poor fit]	
Cc1ccc(NC(=O)C(C)OC(=O)c2ccc(Cl)nc2)cc1S(=O)(=O)N1CCOCC1 (stereo not drawn)		2.31 µM [falling, partial curve]	
Cc1nc(-c2cccc(NC(=O)c3ccco3)c2)cs1	-7.8	29.1 µM [falling, partial curve, poor fit]	
CCNc1nc2nonc2nc1NCC	5.91		0.00461 µM [falling, full curve, poor fit]
Cc1csc(SCc2nnc(-c3ccc(Cl)cc3)o2)n1	250	23.1 µM [rising, partial curve]	25.9 µM [rising, single point]
O=C(Nc1cnn(Cc2c(Cl)cccc2Cl)c1)c1ccc([N+](=O)[O-])cc1	-5.33	0.411 µM [falling, single point]	
Clc1ncccc1-c1nnn(-c2ccccc2Br)n1	9.4	0.651 µM [rising, single point]	
COc1ccc(N2CCN(Cc3oc(CO)cc(=O)c3O)CC2)cc1	-14.9	0.116 µM [falling, full curve, poor fit]	
CC1Cn2c(nc3c2c(=O)[nH]c(=O)n3C)O1 (stereo not drawn)	1.07	7.31 µM [rising, single point]	
CC1CN(S(=O)(=O)c2cccc(C(=O)N(CCc3ccccc3)Cc3ccccc3)c2)CC(C)O1 (stereo not drawn)	-16.6		
CCC(C)c1ccc(NC(=O)C/C(C)=N/NC(=O)c2cnccn2)cc1 (stereo not drawn)	4.58	23.1 µM [rising, single point]	
O=C(NCc1ccc(Cl)cc1)c1ccc2ccccc2n1	27.5	1.84 µM [rising, partial curve]	
O=C(CC1SC(=Nc2ccccc2)N(CCCO)C1=O)Nc1ccc(Cl)cc1 (stereo not drawn)	9.68		6.51 µM [rising, single point]

Sorted by SMILES length (falling): some entries from above.
SMILES	cell number change [%]	AC50 [1]	AC50 [2]
C=CCn1c(O)c(CN2CCN(Cc3ccccc3)CC2)c(C)c(C#N)c1=O	23.9	0.00461 µM [falling, full curve, poor fit]	
O=C(NCc1ccc(Cl)cc1)c1ccc2ccccc2n1	27.5	1.84 µM [rising, partial curve]	
CNCCCNCc1ccc(SC)cc1	-20.1	3.66 µM [falling, partial curve, poor fit]	
